Taken from: PubChem BioAssay AID1259308 (NCATS, 2017)
Here is one part, drawn at random, of about 59,000 deposited reagents. About 1,510 of all reagents (2.6%) count as active. 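Calls use total luciferase alone and ignore viability, so some active siRNAs may act by altering cell number.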 Unmarked entries are inactive. Reagents against one gene are numbered here. Further read-outs or replicates are left out here.

- Aim: 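Knock-downs that increase output of a recombinant reporter protein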 (primary screen)
- Cell system: human HEK293 embryonic kidney cells stably expressing firefly luciferase (HEK-CMV-Luc2-Hygro)
- Knock-down reagent: single siRNA against human genes, 0.8 pmol siRNA per well
- Duration: 72 h
- Measured: 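Reporter luminescence and viable-cell signal on separate replicate plates, given as percent of non-targeting control and median/MAD z-scores, plus per-cell luciferase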
- Reading the numbers: total luciferase, z-score: higher = more reporter protein produced
- Active means: 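Active when the median/MAD z-score for overall luciferase is greater than 3; a gene was taken forward for validation with new siRNAs if at least two of its three siRNAs passed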
- Meaning of the calls: active = raised luciferase; inactive = no rise

What did the screen give for PDZD7 #1?
total luciferase, z-score: -0.281

How did the screen score PDZD7 #2?
total luciferase, z-score: -1.16

For PDZD7 #3, what does the deposit list?
total luciferase, z-score: 1.32

What did the screen give for SRD5A2 #1?
total luciferase, z-score: -0.69

What is on record for SRD5A2 #2?
total luciferase, z-score: -0.0245

What is on record for SRD5A2 #3?
total luciferase, z-score: -1.07

What is on record for CENPV #1?
total luciferase, z-score: 0.325

With CENPV #2, what was measured?
total luciferase, z-score: -0.275

What did the screen give for CENPV #3?
total luciferase, z-score: 0.167

What did the screen give for MT1H #1?
total luciferase, z-score: -1.48

With MT1H #2, what was measured?
total luciferase, z-score: 1.76

With MT1H #3, how do the results read?
total luciferase, z-score: 0.0347

For FMOD #1, what does the deposit list?
total luciferase, z-score: 0.247

With FMOD #2, how do the results read?
total luciferase, z-score: 1.21

Which result is listed for FMOD #3?
total luciferase, z-score: 1.46

For NUP214 #1, what was measured?
total luciferase, z-score: -0.466

How did the screen score NUP214 #2?
total luciferase, z-score: -0.355

With NUP214 #3, what was measured?
total luciferase, z-score: 1.09

How did the screen score CFAP70 #1?
total luciferase, z-score: -1.27

What did the screen give for CFAP70 #2?
total luciferase, z-score: -0.887

With CFAP70 #3, what does the deposit list?
total luciferase, z-score: -0.447

4 entries from above, sorted by “total luciferase, z-score”, lowest first:
NUP214 #1 → total luciferase, z-score = -0.466
NUP214 #2 → total luciferase, z-score = -0.355
FMOD #2 → total luciferase, z-score = 1.21
FMOD #3 → total luciferase, z-score = 1.46
